For at least one entry, the source does not settle the construct or the ends of the probe. Where a protein sequence is shown, tags need not be part of it.
Tested on: T1, ComPsub (Neisseria subflava)
T1 sequence (looked up, limits assumed): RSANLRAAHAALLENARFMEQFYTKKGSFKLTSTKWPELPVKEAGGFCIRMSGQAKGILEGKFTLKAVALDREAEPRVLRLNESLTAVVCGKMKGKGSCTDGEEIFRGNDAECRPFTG
Assay: competition with a labelled probe
Conditions: EMSA, 22.5-180 pmol competitor against N16, competed better than SDU; EMSA: native 10% acrylamide, LightShift kit, buffer not stated; recombinant protein; protein details: MBP fusion (pMAL-p2X), MBP removed with factor Xa

TGACCAGGCCGTCTGAACAAAC (double strand) [DUSvar1 ds primers, unlabelled competitor]
binding result: binds
